Experimental data from patent US10253274B2, “Compounds and methods for inhibiting corrosion in hydrocarbon processing units” (General Electric Company, priority 2012, dated 2019).
Some results were stated once for a whole list of compounds, not compound by compound.

Experiment: Amine-HCl salt precipitation potential index (Salt PPI) relative to ammonia salt
Assay type: physicochemical
Conditions: ammonia salt is the benchmark
Text: Without limiting this specification to any particular theory of operation, the overall efficiency of a given amine may be predicted upon assessment of several factors. One such factor is the amine-HCl salt precipitation potential index (“Salt PPI”). The Salt PPI may also be known by those in the art as the salt volatility index. These indices are merely a comparison of the precipitation potential of the amine salt to the salt of a typical neutralizing compound used in hydrocarbon refining, ammonia.
Salt PPI may be calculated from the equation: […]
If one were to substitute the vapor pressure of ammonia for the vapor pressure of the amine in the equation, the Salt PPI would be 1.0. Effective amines are those that are as good, if not better than the typical additive, ammonia. Thus, effective amines would have a Salt PPI of equal to or less than 1.0. Other neutralizers commonly used in hydrocarbon refining are trimethylamine and N-methylmorpholine.

Which “Salt PPI” value does the source give for `CN1CCOCC1` [N-methylmorpholine (NMM), N-methylmorpholine, reference compound] here?
The value was ≥ 0.1.
